According to PMC2614472:
No constants are given. Whether binding was seen depends on the method and setting. In cells and extracts the contact can be indirect. A yes stands for co-enrichment or nearness to the bait. Other partners may have been found. Tags and fused reporters may be left off the sequences shown.

Sequences of proteins named here, by UniProt entry; tags and fusion partners are left off. A change or cut given only in a name is not applied to a line headed by its entry. A line that says so, or that is headed by a name, gives the form on record, which may keep a tag or linker. Residues count along the entry.
UniProt Q03265, residues 44-553: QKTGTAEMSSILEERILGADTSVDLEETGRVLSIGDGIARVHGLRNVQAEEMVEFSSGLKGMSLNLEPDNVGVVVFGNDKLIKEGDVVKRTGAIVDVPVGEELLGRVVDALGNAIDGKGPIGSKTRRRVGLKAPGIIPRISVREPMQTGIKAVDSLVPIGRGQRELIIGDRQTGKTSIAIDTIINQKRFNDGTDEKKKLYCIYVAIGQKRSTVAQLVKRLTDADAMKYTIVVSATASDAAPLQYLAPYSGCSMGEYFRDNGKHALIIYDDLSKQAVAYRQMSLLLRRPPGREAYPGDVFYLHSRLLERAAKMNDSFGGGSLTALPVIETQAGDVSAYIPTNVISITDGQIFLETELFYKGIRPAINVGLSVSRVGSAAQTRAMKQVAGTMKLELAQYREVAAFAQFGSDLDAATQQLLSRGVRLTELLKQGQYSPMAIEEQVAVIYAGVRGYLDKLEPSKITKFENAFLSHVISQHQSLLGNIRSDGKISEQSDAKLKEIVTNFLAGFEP
UniProt Q8BMS1, residues 37-763: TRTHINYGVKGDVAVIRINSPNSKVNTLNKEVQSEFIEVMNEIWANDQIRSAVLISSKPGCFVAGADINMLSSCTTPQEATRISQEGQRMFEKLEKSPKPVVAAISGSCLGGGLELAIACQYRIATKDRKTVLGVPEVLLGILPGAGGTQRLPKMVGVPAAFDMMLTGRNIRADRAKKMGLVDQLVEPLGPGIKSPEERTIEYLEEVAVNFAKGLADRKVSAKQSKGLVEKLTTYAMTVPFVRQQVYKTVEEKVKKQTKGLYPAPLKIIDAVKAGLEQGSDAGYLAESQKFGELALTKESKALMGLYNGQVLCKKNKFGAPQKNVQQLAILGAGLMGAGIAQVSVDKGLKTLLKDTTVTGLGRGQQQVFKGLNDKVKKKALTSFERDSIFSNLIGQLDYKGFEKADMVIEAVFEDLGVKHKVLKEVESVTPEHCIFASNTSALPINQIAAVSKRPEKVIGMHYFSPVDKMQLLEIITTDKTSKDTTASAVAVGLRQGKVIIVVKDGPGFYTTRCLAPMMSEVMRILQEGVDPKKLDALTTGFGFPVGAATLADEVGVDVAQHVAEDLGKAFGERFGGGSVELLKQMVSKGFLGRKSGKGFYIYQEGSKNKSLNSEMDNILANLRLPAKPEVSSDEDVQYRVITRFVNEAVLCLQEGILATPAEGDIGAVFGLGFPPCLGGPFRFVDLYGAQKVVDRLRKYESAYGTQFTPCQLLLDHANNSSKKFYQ
Atp2a2 (mouse) (O55143-2, form named): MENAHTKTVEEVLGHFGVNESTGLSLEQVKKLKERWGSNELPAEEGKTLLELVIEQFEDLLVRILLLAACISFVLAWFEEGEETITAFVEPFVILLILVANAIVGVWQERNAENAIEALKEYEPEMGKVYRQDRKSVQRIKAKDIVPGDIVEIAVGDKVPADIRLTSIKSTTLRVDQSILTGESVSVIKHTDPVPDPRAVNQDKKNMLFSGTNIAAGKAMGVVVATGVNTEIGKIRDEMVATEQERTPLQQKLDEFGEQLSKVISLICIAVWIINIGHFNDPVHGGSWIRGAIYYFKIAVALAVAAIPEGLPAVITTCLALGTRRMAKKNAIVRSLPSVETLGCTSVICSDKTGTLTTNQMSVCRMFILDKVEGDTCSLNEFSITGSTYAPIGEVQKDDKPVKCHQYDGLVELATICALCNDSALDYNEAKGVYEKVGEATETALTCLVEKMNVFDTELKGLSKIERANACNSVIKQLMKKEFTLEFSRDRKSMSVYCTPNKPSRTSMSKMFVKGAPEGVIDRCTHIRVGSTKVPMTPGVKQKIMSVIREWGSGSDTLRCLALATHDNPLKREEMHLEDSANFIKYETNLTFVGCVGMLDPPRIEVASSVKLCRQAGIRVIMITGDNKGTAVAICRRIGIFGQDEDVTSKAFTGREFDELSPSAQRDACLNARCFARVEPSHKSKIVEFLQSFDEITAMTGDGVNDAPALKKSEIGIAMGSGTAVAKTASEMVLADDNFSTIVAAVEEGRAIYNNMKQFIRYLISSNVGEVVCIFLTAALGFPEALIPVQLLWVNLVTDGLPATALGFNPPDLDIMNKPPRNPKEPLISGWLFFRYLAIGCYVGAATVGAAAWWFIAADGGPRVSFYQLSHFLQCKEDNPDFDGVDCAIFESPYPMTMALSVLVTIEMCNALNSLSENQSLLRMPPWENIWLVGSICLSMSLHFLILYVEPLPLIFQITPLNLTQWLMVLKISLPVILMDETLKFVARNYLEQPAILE
UniProt A2A5R2: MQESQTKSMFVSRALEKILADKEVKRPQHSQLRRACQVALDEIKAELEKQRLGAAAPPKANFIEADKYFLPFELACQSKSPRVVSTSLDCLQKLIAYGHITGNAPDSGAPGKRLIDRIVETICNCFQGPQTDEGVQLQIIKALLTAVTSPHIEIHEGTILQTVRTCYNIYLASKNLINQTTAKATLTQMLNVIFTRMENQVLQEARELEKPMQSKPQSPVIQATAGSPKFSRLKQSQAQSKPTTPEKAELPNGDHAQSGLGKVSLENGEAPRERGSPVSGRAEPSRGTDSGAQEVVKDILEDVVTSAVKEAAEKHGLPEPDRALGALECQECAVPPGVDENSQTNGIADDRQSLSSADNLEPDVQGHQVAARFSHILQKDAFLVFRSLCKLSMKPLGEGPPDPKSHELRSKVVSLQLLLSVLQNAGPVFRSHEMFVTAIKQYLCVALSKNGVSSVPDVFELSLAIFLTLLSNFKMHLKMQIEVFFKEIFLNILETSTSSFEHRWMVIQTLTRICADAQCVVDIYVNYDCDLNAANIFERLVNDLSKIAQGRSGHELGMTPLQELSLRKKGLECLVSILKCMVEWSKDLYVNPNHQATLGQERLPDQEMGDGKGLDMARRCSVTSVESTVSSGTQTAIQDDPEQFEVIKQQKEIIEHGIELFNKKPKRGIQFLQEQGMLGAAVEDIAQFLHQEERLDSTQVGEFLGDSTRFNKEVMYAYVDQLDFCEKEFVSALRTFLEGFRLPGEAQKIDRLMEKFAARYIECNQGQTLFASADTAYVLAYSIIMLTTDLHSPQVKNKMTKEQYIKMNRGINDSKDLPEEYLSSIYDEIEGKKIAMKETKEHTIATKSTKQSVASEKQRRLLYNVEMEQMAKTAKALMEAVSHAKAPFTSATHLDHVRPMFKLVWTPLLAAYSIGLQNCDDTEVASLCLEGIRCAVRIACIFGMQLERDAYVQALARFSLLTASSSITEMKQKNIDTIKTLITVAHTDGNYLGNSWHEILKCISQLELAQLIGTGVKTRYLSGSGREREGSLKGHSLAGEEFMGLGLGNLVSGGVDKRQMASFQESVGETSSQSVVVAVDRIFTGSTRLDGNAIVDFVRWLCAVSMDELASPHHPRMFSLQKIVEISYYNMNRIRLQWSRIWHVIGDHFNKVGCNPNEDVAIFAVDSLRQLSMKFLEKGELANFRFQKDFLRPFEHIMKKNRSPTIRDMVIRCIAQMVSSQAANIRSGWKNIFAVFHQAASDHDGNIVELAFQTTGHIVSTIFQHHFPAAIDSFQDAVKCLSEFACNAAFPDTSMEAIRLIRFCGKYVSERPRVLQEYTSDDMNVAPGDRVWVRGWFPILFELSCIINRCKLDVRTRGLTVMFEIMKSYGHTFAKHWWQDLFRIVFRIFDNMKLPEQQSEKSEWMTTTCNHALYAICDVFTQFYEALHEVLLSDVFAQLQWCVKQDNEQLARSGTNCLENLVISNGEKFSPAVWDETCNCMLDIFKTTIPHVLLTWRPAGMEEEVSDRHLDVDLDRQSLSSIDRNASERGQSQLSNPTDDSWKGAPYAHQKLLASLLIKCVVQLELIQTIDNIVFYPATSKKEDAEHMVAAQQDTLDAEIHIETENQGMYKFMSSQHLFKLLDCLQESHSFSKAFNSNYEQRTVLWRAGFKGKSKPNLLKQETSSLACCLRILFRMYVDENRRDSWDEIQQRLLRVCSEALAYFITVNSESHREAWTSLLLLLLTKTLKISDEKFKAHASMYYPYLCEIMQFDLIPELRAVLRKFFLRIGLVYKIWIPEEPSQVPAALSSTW
UniProt P09874: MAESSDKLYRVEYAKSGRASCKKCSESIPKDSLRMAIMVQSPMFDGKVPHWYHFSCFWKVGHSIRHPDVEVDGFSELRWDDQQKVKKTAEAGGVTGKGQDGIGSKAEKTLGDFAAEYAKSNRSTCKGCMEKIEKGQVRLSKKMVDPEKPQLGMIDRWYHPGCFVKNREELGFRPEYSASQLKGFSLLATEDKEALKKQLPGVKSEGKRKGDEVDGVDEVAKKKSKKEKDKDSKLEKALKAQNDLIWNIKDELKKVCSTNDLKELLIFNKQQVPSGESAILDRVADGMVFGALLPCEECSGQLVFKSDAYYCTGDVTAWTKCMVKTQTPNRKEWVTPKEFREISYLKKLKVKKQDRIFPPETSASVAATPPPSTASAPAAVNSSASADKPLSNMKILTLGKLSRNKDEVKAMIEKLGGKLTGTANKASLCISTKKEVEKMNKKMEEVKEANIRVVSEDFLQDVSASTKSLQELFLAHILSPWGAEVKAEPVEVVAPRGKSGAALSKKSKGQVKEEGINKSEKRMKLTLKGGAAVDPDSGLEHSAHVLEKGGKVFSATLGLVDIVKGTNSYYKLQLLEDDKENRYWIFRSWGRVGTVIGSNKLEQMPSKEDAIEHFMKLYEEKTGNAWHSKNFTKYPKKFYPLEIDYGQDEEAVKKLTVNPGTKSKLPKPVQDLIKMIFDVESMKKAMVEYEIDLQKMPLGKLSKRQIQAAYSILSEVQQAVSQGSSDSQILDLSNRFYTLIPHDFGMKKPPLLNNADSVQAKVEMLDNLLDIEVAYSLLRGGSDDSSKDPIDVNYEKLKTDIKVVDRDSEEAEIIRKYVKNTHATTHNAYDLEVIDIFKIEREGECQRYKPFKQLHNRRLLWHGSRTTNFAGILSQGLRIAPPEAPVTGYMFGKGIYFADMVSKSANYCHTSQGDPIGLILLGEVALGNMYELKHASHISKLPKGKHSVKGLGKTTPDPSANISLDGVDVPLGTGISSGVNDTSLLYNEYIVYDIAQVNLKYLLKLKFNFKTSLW
UniProt P13010: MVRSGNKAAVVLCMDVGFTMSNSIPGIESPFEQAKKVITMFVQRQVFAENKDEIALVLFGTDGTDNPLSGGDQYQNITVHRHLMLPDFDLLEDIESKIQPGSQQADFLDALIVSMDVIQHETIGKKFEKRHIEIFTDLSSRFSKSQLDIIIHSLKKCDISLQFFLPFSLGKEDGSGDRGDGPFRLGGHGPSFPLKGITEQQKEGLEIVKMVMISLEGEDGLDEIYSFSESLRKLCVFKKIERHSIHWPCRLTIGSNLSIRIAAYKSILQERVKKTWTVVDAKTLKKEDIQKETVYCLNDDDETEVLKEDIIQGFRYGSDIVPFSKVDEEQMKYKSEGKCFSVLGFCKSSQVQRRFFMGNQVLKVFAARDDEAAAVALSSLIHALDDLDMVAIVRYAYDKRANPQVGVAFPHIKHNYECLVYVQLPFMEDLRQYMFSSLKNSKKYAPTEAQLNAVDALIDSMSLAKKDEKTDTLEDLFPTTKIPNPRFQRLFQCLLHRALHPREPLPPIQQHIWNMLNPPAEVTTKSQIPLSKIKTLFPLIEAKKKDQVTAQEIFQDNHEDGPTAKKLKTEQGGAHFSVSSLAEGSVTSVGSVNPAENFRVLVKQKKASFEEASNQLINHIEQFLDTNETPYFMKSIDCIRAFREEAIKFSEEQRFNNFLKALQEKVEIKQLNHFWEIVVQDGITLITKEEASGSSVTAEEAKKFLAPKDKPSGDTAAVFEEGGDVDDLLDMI

What follows are substances tested against T1, GST-dysbindin-1 (mouse) (mouse) (UniProt Q91WZ8) (assay: affinity purification with mass spectrometry; GST-dysbindin-1 (mouse) on glutathione Sepharose 4B incubated 3 h at 4°C with precleared mouse skeletal muscle homogenate in lysis buffer; specific CBB bands identified by MALDI-TOF-MS; only the target purified).
T1 sequence: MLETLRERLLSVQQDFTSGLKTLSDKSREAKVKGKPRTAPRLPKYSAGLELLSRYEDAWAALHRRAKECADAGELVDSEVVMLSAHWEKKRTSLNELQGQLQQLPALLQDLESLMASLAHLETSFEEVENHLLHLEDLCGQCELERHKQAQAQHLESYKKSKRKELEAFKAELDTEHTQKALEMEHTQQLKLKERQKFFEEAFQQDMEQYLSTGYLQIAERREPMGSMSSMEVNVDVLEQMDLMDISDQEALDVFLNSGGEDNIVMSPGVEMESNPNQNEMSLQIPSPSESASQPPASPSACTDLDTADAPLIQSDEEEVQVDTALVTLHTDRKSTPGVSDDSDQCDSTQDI

binding, binds:
Atp5a1 (mouse) (from UniProt Q03265 44-553)
Hadha (mouse) (from UniProt Q8BMS1 37-763)
Atp2a2 (mouse) (from UniProt O55143-2 1-998)
Arfgef2 (mouse) (from UniProt A2A5R2 1-1792)

Each substance was assayed against T2, GST-dysbindin-1 (human, isoform A) (human) (UniProt Q96EV8) (assay: affinity purification with mass spectrometry; GST or GST-dysbindin-1 (human isoform A) on glutathione Sepharose 4B incubated 3 h at 4°C with precleared SH-SY5Y lysate (50 mM Tris-HCl pH 7.5, 150 mM NaCl, 1 mM EDTA, 1% Triton X-100); four washes; SDS-PAGE, CBB bands identified by MALDI-TOF-MS peptide mass fingerprinting; only the target …).
T2 sequence: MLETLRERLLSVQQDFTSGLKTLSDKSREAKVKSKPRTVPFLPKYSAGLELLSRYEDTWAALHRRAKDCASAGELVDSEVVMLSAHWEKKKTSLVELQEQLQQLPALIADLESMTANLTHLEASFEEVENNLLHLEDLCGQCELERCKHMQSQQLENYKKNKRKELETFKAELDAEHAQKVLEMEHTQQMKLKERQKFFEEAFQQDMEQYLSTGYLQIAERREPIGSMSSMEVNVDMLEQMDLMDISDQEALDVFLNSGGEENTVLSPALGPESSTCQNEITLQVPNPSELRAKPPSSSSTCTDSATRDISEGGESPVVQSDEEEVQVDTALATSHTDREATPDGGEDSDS

binding, binds:
DNA-dependent protein kinase catalytic subunit (DNA-PKcs) (from UniProt P78527-1 1-4128) (enzyme)
poly (ADP-ribose) polymerase family, member 1 (PARP1) (from UniProt P09874 1-1014) (enzyme)
ATP-dependent DNA helicase 2 (Ku80), endogenous (from UniProt P13010 1-732)
